These are yes or no findings as the source states them, for the method shown. In cells and extracts the contact can be indirect. Some entries that bind do so weakly or less than the wild type.
Tests used:
[1] = biological target: 6x-His-PqsE (wild type) (P. aeruginosa) (UniProt P20581); experiment: pull-down; the same affinity purification on Ni beads with 6x-His-PqsE as bait, under varying concentrations of RhlR:mBTL (Fig. S4b)
[2] = biological target: 6x-His-PqsE (wild type) (P. aeruginosa) (UniProt P20581); experiment: pull-down; E. coli lysate with 6x-His-PqsE (bait) combined with an equal amount of lysate with untagged RhlR:mBTL (or RhlR*, made without mBTL); MagneHis Ni-particle beads, 1 h at 4°C; 20 mM Tris-HCl, 150 mM NaCl, pH 8.0; eluted with 1 M imidazole; SDS-PAGE, Coomassie
[3] = biological target: 6x-His-PqsE (wild type) (P. aeruginosa) (UniProt P20581); experiment: pull-down + SEC; lysates with 6x-His-PqsE and with untagged RhlR:mBTL mixed, Ni-NTA resin 2 h, eluted with 250 mM imidazole, Superdex-200 in 20 mM Tris-HCl, 150 mM NaCl, pH 8.0; complex checked by SDS-PAGE

Sequences of proteins named here, by UniProt entry; tags and fusion partners are left off.
UniProt P20581: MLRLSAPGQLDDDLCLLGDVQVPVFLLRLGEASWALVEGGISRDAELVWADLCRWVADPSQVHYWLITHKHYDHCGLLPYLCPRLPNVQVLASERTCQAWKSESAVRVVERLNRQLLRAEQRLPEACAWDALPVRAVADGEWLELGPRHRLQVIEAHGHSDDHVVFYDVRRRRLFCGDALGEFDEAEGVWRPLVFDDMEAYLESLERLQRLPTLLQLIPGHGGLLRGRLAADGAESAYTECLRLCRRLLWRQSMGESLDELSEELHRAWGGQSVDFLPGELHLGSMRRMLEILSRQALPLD
UniProt P54292: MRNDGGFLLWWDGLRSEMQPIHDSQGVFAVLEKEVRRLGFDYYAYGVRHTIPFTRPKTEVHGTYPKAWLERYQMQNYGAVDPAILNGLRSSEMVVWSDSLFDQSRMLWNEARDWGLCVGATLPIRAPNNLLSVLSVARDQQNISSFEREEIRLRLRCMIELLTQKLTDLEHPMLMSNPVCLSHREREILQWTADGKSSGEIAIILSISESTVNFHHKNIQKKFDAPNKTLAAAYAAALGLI

Measured: binding

RhlR bound to meta-bromo-thiolactone (RhlR:mBTL) (from UniProt P54292 1-241) (receptor)
binds: [1] | [2] | [3]

Reference: publication PMC8754118, “The PqsE-RhlR Interaction Regulates RhlR DNA Binding to Control Virulence Factor Production in Pseudomonas aeruginosa” (Microbiology Spectrum, 2022)
